Measurements from PMC8321896.
No constants are given. Whether binding was seen depends on the method and setting. Some binding calls cover weakened binding; strength is not graded here.

Sequences of proteins named here, by UniProt entry; tags and fusion partners are left off.
UniProt Q86U86: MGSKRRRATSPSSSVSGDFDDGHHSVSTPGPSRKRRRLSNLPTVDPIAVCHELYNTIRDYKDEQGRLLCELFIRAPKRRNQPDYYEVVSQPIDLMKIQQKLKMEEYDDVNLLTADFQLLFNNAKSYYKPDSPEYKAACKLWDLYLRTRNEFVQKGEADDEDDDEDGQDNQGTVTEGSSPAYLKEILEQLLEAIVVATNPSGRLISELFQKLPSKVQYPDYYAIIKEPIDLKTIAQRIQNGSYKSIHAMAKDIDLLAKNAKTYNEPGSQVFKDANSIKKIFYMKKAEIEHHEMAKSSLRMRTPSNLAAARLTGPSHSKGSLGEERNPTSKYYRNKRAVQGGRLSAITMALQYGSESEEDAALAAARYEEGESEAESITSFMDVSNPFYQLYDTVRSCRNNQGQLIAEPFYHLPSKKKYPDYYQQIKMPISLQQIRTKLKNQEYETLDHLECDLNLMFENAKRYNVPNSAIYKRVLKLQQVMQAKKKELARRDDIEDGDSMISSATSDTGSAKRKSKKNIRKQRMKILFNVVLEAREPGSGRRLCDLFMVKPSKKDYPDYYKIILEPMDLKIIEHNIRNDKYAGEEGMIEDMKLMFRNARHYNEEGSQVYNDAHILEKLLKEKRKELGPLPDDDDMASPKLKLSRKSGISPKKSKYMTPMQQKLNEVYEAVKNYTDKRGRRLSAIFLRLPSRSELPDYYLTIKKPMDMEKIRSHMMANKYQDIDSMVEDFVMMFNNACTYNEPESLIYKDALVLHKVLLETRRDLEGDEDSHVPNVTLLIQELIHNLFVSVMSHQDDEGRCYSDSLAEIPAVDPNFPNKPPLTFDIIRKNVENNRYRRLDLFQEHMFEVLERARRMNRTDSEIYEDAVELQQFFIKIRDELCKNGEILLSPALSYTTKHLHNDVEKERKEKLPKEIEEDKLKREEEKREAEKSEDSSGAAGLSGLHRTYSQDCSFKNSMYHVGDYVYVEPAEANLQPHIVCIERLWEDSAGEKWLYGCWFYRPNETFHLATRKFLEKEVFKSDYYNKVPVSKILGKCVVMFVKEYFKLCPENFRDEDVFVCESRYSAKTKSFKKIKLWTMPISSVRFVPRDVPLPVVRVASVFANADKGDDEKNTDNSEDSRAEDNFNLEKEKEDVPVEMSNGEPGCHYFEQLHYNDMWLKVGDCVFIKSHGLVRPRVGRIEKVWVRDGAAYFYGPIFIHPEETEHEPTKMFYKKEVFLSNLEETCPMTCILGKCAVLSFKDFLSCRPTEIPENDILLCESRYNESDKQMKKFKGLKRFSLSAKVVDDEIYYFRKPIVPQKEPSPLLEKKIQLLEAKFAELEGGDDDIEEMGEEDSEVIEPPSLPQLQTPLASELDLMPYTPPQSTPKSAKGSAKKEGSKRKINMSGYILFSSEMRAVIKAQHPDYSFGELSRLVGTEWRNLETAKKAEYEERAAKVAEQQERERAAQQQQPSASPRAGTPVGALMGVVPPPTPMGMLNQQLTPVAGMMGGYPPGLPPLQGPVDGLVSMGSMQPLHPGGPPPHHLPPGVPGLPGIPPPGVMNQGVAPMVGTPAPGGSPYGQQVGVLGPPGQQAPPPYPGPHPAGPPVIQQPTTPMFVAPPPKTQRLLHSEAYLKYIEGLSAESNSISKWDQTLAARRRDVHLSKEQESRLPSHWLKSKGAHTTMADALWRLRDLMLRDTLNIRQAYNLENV

Molecular target: T1, NRF2 (human (endogenous in DU-145)) (UniProt Q16236)
T1 sequence: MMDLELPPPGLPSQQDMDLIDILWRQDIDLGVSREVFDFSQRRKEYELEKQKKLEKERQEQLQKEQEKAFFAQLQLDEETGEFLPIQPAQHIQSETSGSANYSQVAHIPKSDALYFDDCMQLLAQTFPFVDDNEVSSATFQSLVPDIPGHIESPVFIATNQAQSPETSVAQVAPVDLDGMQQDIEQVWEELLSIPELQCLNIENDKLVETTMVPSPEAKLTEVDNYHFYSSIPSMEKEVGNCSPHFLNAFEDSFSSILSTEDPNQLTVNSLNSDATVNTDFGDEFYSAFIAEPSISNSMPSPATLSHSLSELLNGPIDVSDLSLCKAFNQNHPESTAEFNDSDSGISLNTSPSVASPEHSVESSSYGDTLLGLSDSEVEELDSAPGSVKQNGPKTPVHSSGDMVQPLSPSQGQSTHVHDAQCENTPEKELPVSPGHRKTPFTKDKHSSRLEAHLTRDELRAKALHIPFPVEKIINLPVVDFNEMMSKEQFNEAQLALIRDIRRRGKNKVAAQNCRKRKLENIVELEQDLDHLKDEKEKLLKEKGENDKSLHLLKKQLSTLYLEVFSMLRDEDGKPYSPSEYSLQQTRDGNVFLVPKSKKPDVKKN
Experiment: re-ChIP (sequential chromatin immunoprecipitation); formaldehyde cross-linked soluble chromatin precipitated with a first antibody (anti-MUC1-C or anti-NRF2), then reprecipitated with a second antibody or control IgG; read out by qPCR of promoter or intron regions (PBRM1, ARID2, BRD7, SLC7A11, G6PD); DU-145 and LNCaP-AI cells

binding: binds
Substance: PBRM1 (from UniProt Q86U86 1-1689)
